Over roughly 1,600 compounds, “Hit score” has its median near 0.13; the highest 2% begin near 0.46. The list shows a part of the results.
Test system: SARS-CoV-2
Assay: Antiviral activity against SARS-CoV-2 (USA-WA1/2020 strain) measured by imaging in HRCE cells at MOI 0.4 after 96 hrs (reported as hit score from 0-1 for on-disease vs off-disease activity: scores >0.6 considered hits)
Format: functional, Homo sapiens

| Compound | Hit score |
| --- | --- |
| COc1cc([C@@H]2c3cc4c(cc3[C@H](O)[C@H]3COC(=O)[C@H]23)OCO4)cc(OC)c1OC [PODOFILOX] | -0.2021 |
| CCN(CC)C(=O)c1cccc(C)c1 [DIETHYLTOLUAMIDE] | 0.2811 |
| CC(C)(C)NCC(O)COc1ccc(NC(=O)NC2CCCCC2)cc1 (stereo not given) [TALINOLOL] | 0.1441 |
| CN(C)CC/C=C1/c2ccccc2Sc2ccc(Cl)cc21 [CHLORPROTHIXENE] | 0.106 |
| O=C(O)CSc1nnc(Br)n1-c1ccc(C2CC2)c2ccccc12 | 0.2055 |
| C[C@]12C=CC(=O)C=C1CC[C@@H]1[C@@H]2[C@@H](O)C[C@@]2(C)[C@H]1CC[C@]2(O)C(=O)COP(=O)([O-])[O-].[Na+].[Na+] [PREDNISOLONE SODIUM PHOSPHATE] | 0.07703 |
| COc1ccc(C(C)(C)C)cc1CN[C@H]1C2CCN(CC2)[C@H]1C(c1ccccc1)c1ccccc1 [MAROPITANT] | -0.04728 |
| COc1cc(O)c(C(=O)c2ccccc2)cc1S(=O)(=O)O [SULISOBENZONE] | 0.08083 |
| Nc1cccc2c1C(=O)N(C1CCC(=O)NC1=O)C2=O (stereo not given) [POMALIDOMIDE] | 0.3563 |
| N=C(N)NC(=O)Cc1c(Cl)cccc1Cl [GUANFACINE] | 0.1167 |
| OCC(O)COc1ccc(Cl)cc1 (stereo not given) | -0.006972 |
| CC1(C)CCC(C)(C)c2cc(NC(=O)c3ccc(C(=O)O)cc3)ccc21 [TAMIBAROTENE] | 0.3232 |
| N[C@@H](Cc1cc(I)c(Oc2cc(I)c(O)c(I)c2)c(I)c1)C(=O)O [LEVOTHYROXINE] | 0.1758 |
| CN1c2ccccc2C(NCCCCCCC(=O)O)c2ccc(Cl)cc2S1(=O)=O (stereo not given) [TIANEPTINE] | 0.1303 |
| C/C=C(/C)C(=O)O[C@H]1C(C)=C[C@]23C(=O)[C@@H](C=C(CO)[C@@H](O)[C@]12O)[C@H]1[C@@H](C[C@H]3C)C1(C)C [INGENOL MEBUTATE] | 0.3195 |
| COC(=O)Nc1nc2ccccc2[nH]1 [CARBENDAZIM] | 0.1738 |
| CC1CNc2c(cccc2S(=O)(=O)N[C@@H](CCCNC(=N)N)C(=O)N2CC[C@@H](C)C[C@@H]2C(=O)O)C1 (stereo not given in full) [ARGATROBAN] | 0.1407 |
| CN(C)CCN(Cc1ccccc1)c1ccccn1 [TRIPELENNAMINE] | 0.1524 |

| Compound | Hit score |
| --- | --- |
| CN1C(=O)CC(c2ccccc2)C1=O (stereo not given) [PHENSUXIMIDE] | 0.05634 |
| CN(C(=O)C(Cl)Cl)c1ccc(O)cc1 [DILOXANIDE] | -0.0329 |
| CCCSc1nc(N[C@@H]2C[C@H]2c2ccc(F)c(F)c2)c2nnn([C@@H]3C[C@H](OCCO)[C@@H](O)[C@H]3O)c2n1 [TICAGRELOR] | 0.1754 |
| Clc1ccc(CO/N=C(\Cn2ccnc2)c2ccc(Cl)cc2Cl)c(Cl)c1 [OXICONAZOLE] | 0.1067 |
| N=C(N)c1ccc(/C=C/c2ccc(C(=N)N)cc2O)cc1 [HYDROXYSTILBAMIDINE] | 0.4886 |
| O=C(Nc1ccc(C(O)(C(F)(F)F)C(F)(F)F)cc1)c1ccc(C(F)(F)F)cc1 | 0.2642 |
| O=C(O)C1=C(CSc2nnnn2CS(=O)(=O)O)CS[C@@H]2[C@H](NC(=O)[C@H](O)c3ccccc3)C(=O)N12 [CEFONICID] | 0.05091 |
| CCCc1c2oc(C(=O)O)cc(=O)c2cc2c(=O)cc(C(=O)O)n(CC)c12 [NEDOCROMIL] | 0.05621 |
| COc1cc2nc(N(C)CCCNC(=O)C3CCCO3)nc(N)c2cc1OC (stereo not given) [ALFUZOSIN] | 0.1086 |
| CCN(CC)c1ccc(C(=C2C=CC(=[N+](CC)CC)C=C2)c2ccccc2)cc1 | 0.02153 |
| CCCCCCCCCCCCCCCC(=O)OC[C@@H](NC(=O)C(Cl)Cl)[C@H](O)c1ccc([N+](=O)[O-])cc1 [CHLORAMPHENICOL PALMITATE] | 0.136 |
| Cc1cccc(O)c1 [METACRESOL] | -0.03642 |
| NC(=O)c1nc(F)cnc1O | 0.1191 |
| CO[C@@]1(NC(=O)CSC[C@@H](N)C(=O)O)C(=O)N2C(C(=O)O)=C(CSc3nnnn3C)CS[C@@H]21 [CEFMINOX] | 0.1316 |
| N[C@@H](Cc1c[nH]c2ccc(O)cc12)C(=O)O [OXITRIPTAN] | 0.1749 |
| CSCC1CN(/N=C/c2ccc([N+](=O)[O-])o2)C(=O)O1 (stereo not given) | -0.03043 |
| CNS(=O)(=O)CCc1ccc2[nH]cc(C3CCN(C)CC3)c2c1 | 0.2212 |

Filtered by structure: the compounds so far with an aryl methoxy group

| Compound | Hit score |
| --- | --- |
| COc1cc([C@@H]2c3cc4c(cc3[C@H](O)[C@H]3COC(=O)[C@H]23)OCO4)cc(OC)c1OC [PODOFILOX] | -0.2021 |
| COc1ccc(C(C)(C)C)cc1CN[C@H]1C2CCN(CC2)[C@H]1C(c1ccccc1)c1ccccc1 [MAROPITANT] | -0.04728 |
| COc1cc(O)c(C(=O)c2ccccc2)cc1S(=O)(=O)O [SULISOBENZONE] | 0.08083 |
| COc1cc2nc(N(C)CCCNC(=O)C3CCCO3)nc(N)c2cc1OC (stereo not given) [ALFUZOSIN] | 0.1086 |
